Assay results reported in patent publication US20250313631A1.
No constants are given. Whether binding was seen depends on the method and setting. Some results given as binding are weak or reduced against the parent protein; the word gives no strength.

Columns and labels:
[1] = target: recombinant cynomolgus macaque VISTA (His-tagged) (cynomolgus macaque); experiment: ELISA, plate coated with cyno VISTA
[2] = target: recombinant cynomolgus macaque VISTA (His-tagged) (cynomolgus macaque); experiment: ELISA
[3] = target: recombinant cynomolgus macaque VISTA (His-tagged) (cynomolgus macaque); experiment: ELISA, target protein coated, absorbance 450 nm

Binder | binding [1] | binding [2] | binding [3]
anti-VISTA clone V4-C24 IgG1 (antibody, V domains shown) VH: QVQLQESGPGLVKPSDTLSLTCTVSGYSITSDYTWNWIRQTPGKGLEWIGHITYSGSVSYNPSLRSRVTISRDTSKNQFSLKLSSVTAADTATYSCARALYYPWYFDVWGTGTTVTVSS VL: EIVLTQSPATLSLSPGERATLSCRASSSVGYIHWYQQKPGQAPRPLIYTTSYRATGIPARFSGSGSGTDNTLTISSLEPEDSAVYYCQQWSSYPPITFGGGTKLEVKR | binds | binds | 
anti-VISTA clone V4-C31 IgG1 (antibody, V domains shown) VH: QVQLQESGPGLVKPSDTLSLTCTVSGYSITSDYTWNWIRQTPGKGLEWIGHITYSGSVSYNPSLRSRVTISRDTSKNQFSLKLSSVTAADTATYSCARALYYPWYFDVWGTGTTVTVSS VL: EIVLTQSPATLSLSPGERATLSCRASSSVGYIHWYQQKPGQAPRPLIYATYYRTTGIPARFSGSGSGTDNTLTISSLEPEDSAVYYCQQWSSYPPITFGGGTKLEVKR | binds | binds | 
anti-VISTA clone V4-C30 IgG1 (antibody, V domains shown) VH: QVQLQESGPGLVKPSDTLSLTCTVSGYSITSDYTWNWIRQTPGKGLEWIGHITYSGSVSYNPSLRSRVTISRDTSKNQFSLKLSSVTAADTATYSCARALYYPWYFDVWGTGTTVTVSS VL: EIVLTQSPATLSLSPGERATLSCRASSSVGYIHWYQQKPGQAPRPLIYATYYRATGIPARFSGSGSGTDNTLTISSLEPEDSAVYYCQQWSSYPPITFGGGTKLEVKR | binds | binds | 
anti-VISTA clone 13D5-1 IgG1 (antibody, V domains shown) VH: QVQLQQSGAELVRPGTSVKISCKASGYTFTNYWLGWVKQRPGHGLEWIGDIYPGGGYTNYNEKFKGKATLTADTSSSTAYMQLSSLTSEDSAVYFCVRSGYYYGSSWYFDVWGAGTTVTVSS VL: DVLMTQTPLSLPVSLGDQASISCRSSQSIVHSSGNTYLEWYLQKPDQSPKLLIYKVSNRFSGVPDRFSGSGSGTDFTLKISRVEAEDLGVYYCFQGSHVPPTFGGGTKLEIKR |  | binds | binds

Next, values leading:

binding [1] | binding [2] | binding [3] | Binder
binds | binds |  | anti-VISTA clone V4-C27 IgG1 (antibody, V domains shown) VH: QVQLQESGPGLVKPSDTLSLTCTVSGYSITSDYTWNWIRQTPGKGLEWIGHITYSGSVSYNPSLRSRVTISRDTSKNQFSLKLSSVTAADTATYSCARALYYPWYFDVWGTGTTVTVSS VL: EIVLTQSPATLSLSPGERATLSCRASSSVGYIHWYQQKPGQAPRPLIYATYNRATGIPARFSGSGSGTDNTLTISSLEPEDSAVYYCQQWSSYPPITFGGGTKLEVKR
binds | binds |  | anti-VISTA clone V4-C28 IgG1 (antibody, V domains shown) VH: QVQLQESGPGLVKPSDTLSLTCTVSGYSITSDYTWNWIRQTPGKGLEWIGHITYSGSVSYNPSLRSRVTISRDTSKNQFSLKLSSVTAADTATYSCARALYYPWYFDVWGTGTTVTVSS VL: EIVLTQSPATLSLSPGERATLSCRASSSVGYIHWYQQKPGQAPRPLIYATSYRATGIPARFSGSGSGTDNTLTISSLEPEDSAVYYCQQWSSYPPITFGGGTKLEVKR
